Laboratory results published in the supplement of paper PMC5949888.
Most values lie at the floor of the assay. Slopes are relative: functional sequences can read slightly below zero.

These substances were tested on Saccharomyces cerevisiae PS128 hsf1 delta, HSF1(1-493) fusion (assay: growth estimate (transactivation domain function in HSF1 fusion, heat-shock survival) (a.u. (slope of normalised read count over time)); higher = stronger growth at 37°C, i.e. more transactivation activity). Conditions: library: random library.

Substance	growth estimate
YHAQRLCTQFVVMGRLRVL	< -0.25
YHDN	< -0.25
YHGEIL	< -0.25
YHMR	< -0.25
YHNCPLTEGSQKVVSRASSS	< -0.25
YHVAKVNIGSALGKSSRSRP	< -0.25
YHVPTVNTSECGFVR	< -0.25
YHVRRE	< -0.25
YIELLTEVRFFWLSHGGSPS	< -0.25
YIFCSM	-0.248
YIGIINSAARS	< -0.25
YIGLSEAFTLVNNPATELL	< -0.25
YILP	< -0.25
YIRGCAIWSYPRPGLCTSLD	< -0.25
YIRS	< -0.25
YISGISVLQGLLSSVLMAIS	< -0.25
YISILITPILERVGLSIALP	< -0.25
YIVCAHLNRF	< -0.25
YKAGKRWLVVKLVYGSARTE	< -0.25
YKFHEGSR	-0.241
YKGHTTF	< -0.25
YKHMIEYQERRRTITSVGQA	< -0.25
YKIRCQWSQPIGAVNHWAGR	< -0.25
YKKP	< -0.25
YKLALSLTL	< -0.25
YKPSCFKISFPTTPLWHNQA	< -0.25

In a second layout: entries from further up
Substance | growth estimate
YHGEIL | < -0.25
YHMR | < -0.25
YHNCPLTEGSQKVVSRASSS | < -0.25
YHVPTVNTSECGFVR | < -0.25
YHVRRE | < -0.25
YIFCSM | -0.248
YIGLSEAFTLVNNPATELL | < -0.25
YILP | < -0.25
YIRGCAIWSYPRPGLCTSLD | < -0.25
YIRS | < -0.25
YISGISVLQGLLSSVLMAIS | < -0.25
YISILITPILERVGLSIALP | < -0.25
YIVCAHLNRF | < -0.25
YKAGKRWLVVKLVYGSARTE | < -0.25
YKFHEGSR | -0.241
YKGHTTF | < -0.25
YKHMIEYQERRRTITSVGQA | < -0.25
YKKP | < -0.25
YKLALSLTL | < -0.25
YKPSCFKISFPTTPLWHNQA | < -0.25

Next records follow.

Substance	growth estimate
YKPVCANTL	< -0.25
YKRRISNRTERPVGESFVGL	< -0.25
YKTECLNTGWLRDRYLQFKP	< -0.25
YLAESLFFQPENSSGTLRAS	< -0.25
YLASEDPTSMIISPFYVSVR	< -0.25
YLCRMAESSKGAKASLHNCI	< -0.25
YLDQAIVVPCLMDTR	< -0.25
YLDSVCHPFRLGSEGEYSRV	< -0.25
YLEEGFT	< -0.25
YLEQRMQSEAHM	< -0.25
YLFASTTRYIWVSSTIYGSN	< -0.25
YLGILVESIHLT	< -0.25
YLGVAECNPAHAGQSV	< -0.25
YLGYLYKIDG	< -0.25
YLHTGMQPPTSRGS	< -0.25
YLPRINAAHLIQASLSTVEV	< -0.25
YLPTTRGSV	< -0.25
YLQAWTITLCDPIYRDLIRD	< -0.25
YLQHPCLWDSQWSGLSRPFC	< -0.25
YLRTSSNPLHRASLCYPGIT	< -0.25
YLSANVIQRIQFSRPLPSQG	< -0.25
YLTGLYVNSSNGPPCWRIEG	< -0.25
YLVGLPYRLDLSMHHR	< -0.25
YLVLVSVCLFSAWITGM	< -0.25
YLVTLLPGGALARIVQRPS	< -0.25
YLVVHPDSNPQH	< -0.25

Substance	growth estimate
YLVWGSHKEGNTQ	-0.246
YLW	< -0.25
YLYRLIALK	< -0.25
YMGLRKCDVDTDTVMLCESS	< -0.25
YML	< -0.25
YMNKVR	< -0.25
YMQSAR	< -0.25
YMRRGTGHLQEP	< -0.25
YMSSAAWILGRCPVAVAVLQ	< -0.25
YMYMR	< -0.25
YNEVREYYLHRLNFLKVRVY	-0.245
YNFGGVKGRHFFLDLGTTSL	-0.228
YNHLMHTPAPRVPVDGSPKG	< -0.25
YNLPLHASSHRNAVGCPDTT	< -0.25
YNQGPRTQP	< -0.25
YNTIESLAAQSSFVFALYVL	< -0.25
YNWFSTVNQGASLTMRAEWA	< -0.25
YPCNWVRSGNSVSGQSNVGS	< -0.25
YPCVWQSVARESICHLLEGC	< -0.25
YPDDGYWELV	< -0.25
YPFQTRPDVLRLPAFVQGAS	< -0.25
YPFSLNIMVRMS	< -0.25
YPGKSSK	< -0.25
YPGQ	< -0.25
YPLCSGIGAVYSAPLRCLFA	< -0.25
YPLRPNDQGAFTWGLR	< -0.25

Substance	growth estimate
YPML	< -0.25
YPPTRWEFRTCSNVIAYRSR	< -0.25
YPPVTVELTVRRSADSGISA	< -0.25
YPPYQEGVPI	< -0.25
YPQKG	< -0.25
YPRARPPTTD	< -0.25
YPRPYYTEGCEIVDVRASDK	< -0.25
YPSGRYGSS	< -0.25
YPTTKFALLRHKLRDGRVRA	< -0.25
YPVLSGFGNVRESTVHRWTF	< -0.25
YPVRFRS	< -0.25
YQC	< -0.25
YQNVREDPMVHVVVGTVWTI	< -0.25
YQRR	< -0.25
YQVHIPTQLRYRTVGQRLIC	< -0.25
YQVQGDTGMHDSDSRTLDGP	< -0.25
YQVSKKAALKL	< -0.25
YQWYHEPNLYLCTRAIDLSL	< -0.25
YRCANASSAETEYEARQPAD	< -0.25
YREC	< -0.25
YRGIEGITMDVLRPQVFWAK	< -0.25
YRGPVR	< -0.25
YRGQKYATYAAADFSARPDW	< -0.25
